# Over roughly 33,000 sequences, “E-score (-0.5 to 0.5)” has its median near -0.0059; the highest 2% begin near 0.26. The list shows a part of the results.
# Molecular target: T1, Cin5 (UniProt P40917)
# T1 sequence: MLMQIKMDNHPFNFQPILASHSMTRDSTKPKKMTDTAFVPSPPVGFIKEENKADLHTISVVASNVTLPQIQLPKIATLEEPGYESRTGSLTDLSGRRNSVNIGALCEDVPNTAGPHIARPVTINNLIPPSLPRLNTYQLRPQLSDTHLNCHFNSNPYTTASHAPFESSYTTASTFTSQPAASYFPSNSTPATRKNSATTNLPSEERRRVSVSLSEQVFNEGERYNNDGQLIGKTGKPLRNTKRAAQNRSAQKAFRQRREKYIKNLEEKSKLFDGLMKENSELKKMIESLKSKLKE
# Assay: PBM E-score (8-mer binding enrichment) (E-score (-0.5 to 0.5)); higher = stronger / more preferred TF binding
# Conditions: protein concentration: 100 nM; construct: GST-full length
# Procedure: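 Universal 'all 10-mer' protein binding microarrays (Agilent AMADID 015681) probed with GST-tagged S. cerevisiae TFs (full-length or DBD) made by in vitro transcription/translation (PURExpress), about 100-200 nM. Bound TF was detected with fluorescent anti-GST. Each ungapped 8-mer (which stands for itself and its reverse complement) is scored by the PBM enrichment score (E-score), a modified Wilcoxon-Mann-Whitney statistic from -0.5 to +0.5, computed with the Universal PBM Analysis Suite. Scale: above 0.35 generally sequence-specific binding.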
row,Sequence,PBM E-score
1,CATTCATA,0.256
2,ACCCTAAG,-0.0261
3,ATGTGTTA,0.132
4,CTCCCCAG,-0.0489
5,TAGGTGAA,0.136
6,TCTCTTCA,-0.00771
7,AAAGCCTA,-0.102
8,AGTCTCGC,-0.00731
9,CTAGGGCA,-0.279
10,AACGGCAA,0.0737
11,CGCGTAAA,0.165
12,GCGACCAA,0.194
13,GAATCCTA,0.0175
14,ATGCATCC,0.0022
15,ATGCATAA,0.193
16,CCTGCACA,-0.17
17,CCCGGTAC,-0.134
18,CTTGGTGC,-0.0925
19,ACCTTGGC,-0.185
20,CAAACATG,0.0123
21,CTTGGTTC,0.117
22,AGTTCGTA,0.0677
23,TGCGTCCA,-0.219
24,ACGTCGTC,-0.0503
25,CACAATAC,0.0698

row,Sequence,PBM E-score
1,AGCCAAAA,0.0959
2,CTTCCGCA,-0.142
3,CGAGTGGC,-0.182
4,ACATATCA,0.242
5,CTGGAAAG,-0.0736
6,CTATGGAA,-0.0826
7,GTAGGAAC,-0.04
8,GAATACCA,0.207
9,AAAGGGGC,-0.202
10,AAGCCGGG,-0.0945
11,TCCCTACA,-0.0396
12,CGTTGTGA,-0.0317
13,CCTCTCAC,-0.147
14,GACTATGA,0.0503
15,CGGCATAA,0.105
16,CACAGAAA,0.0359
17,CCCAAGTC,-0.172
18,CTGCCTCC,-0.0965
19,CTCAGGGC,-0.0919
20,GAAACGCA,0.0412
21,TTAACCAA,0.148
22,GATGAACA,0.0889
23,CTTGTTTC,0.0494
24,ATCTTCAT,0.0738
25,ACCCTCTA,-0.131

row,Sequence,PBM E-score
1,CATCTTTA,-0.0322
2,AAAATTAT,0.251
3,ACATGGAT,0.092
4,AACTGCGT,-0.121
5,ATAGTCCC,-0.103
6,ATCCGGAA,0.227
7,AACGACAC,0.17
8,CTAGCCCC,-0.109
9,ATCAGAGC,0.0896
10,ATACGTTA,0.0594
11,AACGATAG,0.0137
12,GCACTAGA,-0.0877
13,CCTCGTGC,-0.194
14,CCTCGGAA,0.0479
15,GCTTAGCA,0.0739
16,ACTCATAG,0.0385
17,CAAGCGAC,-0.0289
18,CTCAATAA,-0.15
19,AGTCCAAT,0.0719
20,TCAACACA,0.189
21,TACCGTAA,0.177
22,GCGCGGCA,-0.0451
23,GCTATCGA,-0.0296
24,AGGGCACG,-0.206
25,AAAGGGTC,-0.142

row,Sequence,PBM E-score
1,GTAGTCCA,-0.224
2,CTCCTCAC,-0.258
3,ACCCACAC,0.0935
4,ATCCCAAG,-0.0105
5,GGGCGCTA,-0.164
6,ATCTTATC,0.158
7,CGTCCAAG,-0.148
8,TGTCTAAA,-0.0239
9,AAGTACAG,0.0416
10,CCTGGGTC,-0.256
11,AGTTGATG,0.0486
12,ATCTGAAG,-0.229
13,AATCGTTC,0.0881
14,AAATTGCT,0.14
15,CGCAGCAA,-0.101
16,GACGCAGA,-0.0192
17,GAGTTAAA,0.0178
18,GGAAGGAC,-0.163
19,CATAGATG,-0.0944
20,GGAGAGCA,-0.232
21,GAGGGCGC,-0.164
22,CGAGCGGA,0.00773
23,CAGTAATA,0.254
24,CAATGCAC,-0.0596
25,GGGACTAC,0.0211

row,Sequence,PBM E-score
1,CTTTTCAC,0.0318
2,CTGATTAA,0.108
3,CTTGGTAC,0.115
4,AATATGCC,-0.075
5,AGAGGCTC,-0.266
6,CATTAATG,0.196
7,CCACAGTA,0.0368
8,ACGGGCAG,0.00666
9,ATTTGTTA,0.179
10,GAGATTAA,0.14
11,AGACTATG,-0.0386
12,ATAACCGG,-0.145
13,ATGAGTTC,-0.0157
14,GTATTATA,0.267
15,AATATAGT,0.315
16,ATATGAAA,0.259
17,ATAATTGG,0.126
18,TATCAGAA,0.0533
19,TCCGACCA,-0.0775
20,CTGCAGTC,-0.165
21,AGAGTAGC,-0.186
22,AAATTACC,0.123
23,GAGAAAAC,0.0234
24,AAAAAAAT,0.236
25,TGGTAACA,-0.0163

row,Sequence,PBM E-score
1,GAAAACGA,-0.126
2,CTCAGAGC,-0.234
3,GAGCAGAA,-0.0414
4,CGCGCCTA,0.159
5,TGAGTAAA,0.0976
6,ACTTGGAT,0.118
7,GGATAGGA,0.115
8,ACAAGGCG,-0.0359
9,TCGCGCAA,0.0798
10,TTAAATAA,0.313
11,CGTGGAGC,-0.0401
12,CAGGAATG,-0.0362
13,ATCCGTAA,0.139
14,CAACACTA,0.21
15,AACACATT,0.173
16,AGTTGTCG,-0.0209
17,ACTATGCT,0.112
18,GAAATGGA,0.00728
19,AACTCGGG,-0.0842
20,ACCCGCGA,0.0354
21,AGATGTCG,0.0333
22,CATGGTCG,-0.0969
23,GGCAACCC,-0.189
24,CCTAAGAC,-0.107
25,AGGCGGCA,-0.224

row,Sequence,PBM E-score
1,AAGACTGC,-0.0995
2,TAAATAGA,-0.0988
3,AGCGACTG,-0.189
4,ACACAGCA,0.0969
5,CAGGAGCA,-0.0646
6,GCGGCCGA,-0.0155
7,CATCGTCC,-0.0442
8,ATCACACG,-0.0519
9,ATTCTGAA,-0.0141
10,CGGTTTGA,-0.0691
11,AGGGTTTG,0.15
12,CACCGCGC,-0.024
13,AAGTTTAG,0.0621
14,AGGAATCG,0.00266
15,CCGAGCGG,-0.118
16,AGCCTCAG,-0.0929
17,GTCATTTA,0.0111
18,CATGGTGC,-0.146
19,CGGTTTGC,0.0401
20,AAAGATTG,-0.0497
21,ACTTAGGG,-0.0988
22,CTGAATCC,-0.0313

# From the supplement of paper PMC3334620
